Test results as given in PMC13466294 (International Journal of Molecular Sciences, 2026).

Key:
HeLa cells = type: cell-based; conditions: 3 µM, overnight, 37 °C, DMEM with 10% FBS, single-section imaging with DAPI
peptide made by a vendor = conditions: whole synthesis, RP-HPLC

| Substance | Subcellular localization of AG signal (HeLa cells) | final HPLC purity (peptide made by a vendor) |
| --- | --- | --- |
| MKDHLIHNHHKEEHAHAHNKDYDIPTTHHAHHSTENLYFQGSSGSSGMSVIKPEMKIKLCMRGTVNGHNFVIEGEGKGNPYEGTQILDLNVTEGAPLPFAYDILTTVFQYGNRAFTKYPADIQDYFKQTFPEGYHWERSMTYEDQGICTATSNISMRGDCFFYDIRFDGTNFPPNGPVMQKKTLKWEPSTEKMYVRDGVLKGDVNMALLLEGGGHYRCDFKTTYKAKKDVRLPDAHKVDHRIEILKHDKDYNKVKLYENAVARYSMLPSQAKGLQQGGTGGGGSTLKERCLQVVRSLVKKKRTLRKNDRKKR [AG–Nuc1511, monomeric Azami Green genetically fused at its C-terminus via a linker to Nuc1511] | absent from the nuclear region |  |
| TAMRA-labeled Nuc1510 |  | >90% |
| MKDHLIHNHHKEEHAHAHNKDYDIPTTHHAHHSTENLYFQGSSGSSGMSVIKPEMKIKLCMRGTVNGHNFVIEGEGKGNPYEGTQILDLNVTEGAPLPFAYDILTTVFQYGNRAFTKYPADIQDYFKQTFPEGYHWERSMTYEDQGICTATSNISMRGDCFFYDIRFDGTNFPPNGPVMQKKTLKWEPSTEKMYVRDGVLKGDVNMALLLEGGGHYRCDFKTTYKAKKDVRLPDAHKVDHRIEILKHDKDYNKVKLYENAVARYSMLPSQAKGLQQGGTGGGGSYGRKKRRQRRR [AG–TAT, Azami Green fused to TAT peptide, positive control, reference compound] | nucleolar-targeting ability |  |
| MKDHLIHNHHKEEHAHAHNKDYDIPTTHHAHHSTENLYFQGSSGSSGMSVIKPEMKIKLCMRGTVNGHNFVIEGEGKGNPYEGTQILDLNVTEGAPLPFAYDILTTVFQYGNRAFTKYPADIQDYFKQTFPEGYHWERSMTYEDQGICTATSNISMRGDCFFYDIRFDGTNFPPNGPVMQKKTLKWEPSTEKMYVRDGVLKGDVNMALLLEGGGHYRCDFKTTYKAKKDVRLPDAHKVDHRIEILKHDKDYNKVKLYENAVARYSMLPSQAKGLQQGGTGGGGSKVLSRVVQLCREKLTRRRRSNRR [AG–Nuc1510, monomeric Azami Green genetically fused at its C-terminus via a linker to Nuc1510] | absent from the nuclear region |  |
